We go through one molecule from publication PMC3410853 (PLoS Pathogens, 2012).

Test [1] deals with engineered soluble pAPN (ectodomain, residues 36 to 963) (porcine) (UniProt P15145). Description: crystal structure; two crystal structures of the pAPN ectodomain alone, crystallized using distinct conditions (not shown); both purified.
Test [2] has the same target. Briefly: crystal structure; both purified.

Results are given in words; binding and its absence hold for the method and conditions named. Some results given as binding are weak or reduced against the parent protein; the word gives no strength.

B1: engineered soluble pAPN (ectodomain, residues 36 to 963) (domain or fragment)
chain: EKNKNAEHVPQAPTSPTITTTAAITLDQSKPWNRYRLPTTLLPDSYNVTLRPYLTPNADGLYIFKGKSIVRLLCQEPTDVIIIHSKKLNYTTQGHMVVLRGVGDSQVPEIDRTELVELTEYLVVHLKGSLQPGHMYEMESEFQGELADDLAGFYRSEYMEGNVKKVLATTQMQSTDARKSFPCFDEPAMKATFNITLIHPNNLTALSNMPPKGSSTPLAEDPNWSVTEFETTPVMSTYLLAYIVSEFQSVNETAQNGVLIRIWARPNAIAEGHGMYALNVTGPILNFFANHYNTSYPLPKSDQIALPDFNAGAMENWGLVTYRENALLFDPQSSSISNKERVVTVIAHELAHQWFGNLVTLAWWNDLWLNEGFASYVEYLGADHAEPTWNLKDLIVPGDVYRVMAVDALASSHPLTTPAEEVNTPAQISEMFDSISYSKGASVIRMLSNFLTEDLFKEGLASYLHAFAYQNTTYLDLWEHLQKAVDAQTSIRLPDTVRAIMDRWTLQMGFPVITVDTKTGNISQKHFLLDSESNVTRSSAFDYLWIVPISSIKNGVMQDHYWLRDVSQAQNDLFKTASDDWVLLNVNVTGYFQVNYDEDNWRMIQHQLQTNLSVIPVINRAQVIYDSFNLATAHMVPVTLALDNTLFLNGEKEYMPWQAALSSLSYFSLMFDRSEVYGPMKKYLRKQVEPLFQHFETLTKNWTERPENLMDQYSEINAISTACSNGLPQCENLAKTLFDQWMSDPENNPIHPNLRSTIYCNAIAQGGQDQWDFAWGQLQQAQLVNEADKLRSALACSNEVWLLNRYLGYTLNPDLIRKQDATSTINSIASNVIGQPLAWDFVQSNWKKLFQDYGGGSFSFSNLIQGVTRRFSSEFELQQLEQFKKNNMDVGFGSGTRALEQALEKTKANIKWVKENKEVVLNWFIEHS
As for B1, the binding entry in test [1] and in test [2] was “binds” each time.
